Experimental data from PubChem BioAssay AID1671190 (National Center for Advancing Translational Sciences (NCATS), 2021).
Out of some 580,000 compounds screened, about 6,100 (1.1%) were called active. The shares of active, inactive and inconclusive entries below differ from those in the screen. The call rests on the fitted dose curve; in most records, active means well fitted inhibition curve with a large enough effect; inconclusive means small, poorly fitted or top-dose-only effect, or another doubt; inactive means no such curve, though single readings can be large or run the other way. Potencies of inconclusive entries are doubtful fits and often do not repeat.

Amino acid sequences for entries named in this document (tags omitted).
UniProt P18054, whole entry, looked up: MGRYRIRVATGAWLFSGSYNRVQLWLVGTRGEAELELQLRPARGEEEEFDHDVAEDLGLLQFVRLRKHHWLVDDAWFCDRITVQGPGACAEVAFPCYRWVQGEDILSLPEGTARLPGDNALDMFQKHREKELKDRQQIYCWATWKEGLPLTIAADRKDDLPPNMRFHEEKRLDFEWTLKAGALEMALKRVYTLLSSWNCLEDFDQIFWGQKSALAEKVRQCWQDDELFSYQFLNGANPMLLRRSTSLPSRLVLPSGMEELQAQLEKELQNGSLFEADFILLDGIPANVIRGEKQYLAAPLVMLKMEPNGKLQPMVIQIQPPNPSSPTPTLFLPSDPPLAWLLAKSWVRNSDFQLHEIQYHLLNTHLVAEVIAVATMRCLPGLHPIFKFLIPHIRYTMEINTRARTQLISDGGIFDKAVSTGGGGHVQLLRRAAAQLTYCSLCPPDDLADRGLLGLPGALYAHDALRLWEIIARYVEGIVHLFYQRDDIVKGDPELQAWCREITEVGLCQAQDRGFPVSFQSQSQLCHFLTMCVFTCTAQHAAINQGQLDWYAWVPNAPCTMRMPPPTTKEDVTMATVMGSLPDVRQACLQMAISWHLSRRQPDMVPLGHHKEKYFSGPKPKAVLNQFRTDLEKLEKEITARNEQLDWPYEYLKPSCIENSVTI

What follows are compounds tested against Polyunsaturated fatty acid lipoxygenase ALOX12 (Homo sapiens) (UniProt P18054) (assay: Primary qHTS assay for inhibitors of human arachidonate 12S-lipoxygenase (ALOX12): Round 2). Conditions: purified 12hLO, xylenol orange hydroperoxide absorbance; series mostly up to 108 µM.
Method in brief: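 Purified human 12hLO at 150 nM in 25 mM Hepes, 0.01% Triton X-100, pH 7.0, preincubated 15 min at room temperature with compound. Reaction started with 40 uM arachidonic acid, 30 min at room temperature. Hydroperoxide measured by Fe-xylenol orange, 573/405 nm absorbance ratio.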
Potency means the concentration at half of the fitted maximal effect.

Row | SMILES | Potency
1 | Cc1cc(C)cc(C(=O)Nc2cccc(-c3nn4cnnc4s3)c2)c1 | inconclusive: 10 µM [inhibitor, full curve]
2 | Cc1ccc2c(c1)-n1c(nc3cc(Cl)ccc3c1=O)C(CC(C)C)NC2=O (stereo unspecified) | inconclusive: 7.08 µM [inhibitor, full curve, poor fit]
3 | C=CCOC(=O)C1=C(C)N=C2SC=C(CC(=O)N3CCCC3)N2C1c1ccc(F)cc1 (stereo unspecified) | inactive
4 | O=c1[nH]c2ccccc2c2ccc(Cl)cc12 | inconclusive: 44.7 µM [inhibitor, partial curve, poor fit]
5 | CC(=O)Nc1cccc(-c2cc(-c3c(C)noc3C)cc3c2C(=O)N(C)C3)c1 | inactive
6 | Cc1ccc(CN2CCN(c3cc(NCCO)ncn3)CC2CCO)cc1 (stereo unspecified) | inconclusive: 89.1 µM [inhibitor, partial curve, poor fit]
7 | CCc1ccc(C(=O)/C=C/c2ccc(O)cc2)cc1 | inconclusive: 89.1 µM [inhibitor, partial curve, poor fit]
8 | CCOC(=O)C1=C(C)NC(=O)NC1C (stereo unspecified) | inactive
9 | Cc1cc(C)cc(NC(=O)CCn2cnc3c2c(=O)n(C)c(=O)n3C)c1 | inactive
10 | Cc1ccc(-c2csc(=S)n2CC(=O)O)cc1 | inconclusive: 44.7 µM [inhibitor, partial curve, poor fit]
11 | Cc1ccnc(NC(c2ccccc2)c2ccc3cccnc3c2O)c1 (stereo unspecified) | inconclusive: 50.1 µM [inhibitor, partial curve]
12 | CCCc1c(-c2cccc(Cl)c2)ncn1Cc1cccc(-c2ccccc2)c1 | inconclusive: 20 µM [inhibitor, partial curve, poor fit]
13 | O=C(CCC(=O)Nc1ccc(Cl)cc1Cl)N/N=C/c1ccc([N+](=O)[O-])o1 | inconclusive: 56.2 µM [inhibitor, partial curve, poor fit]
14 | C[N+](C)(C)CCN1C(=O)c2ccccc2C1=O | inconclusive: 31.6 µM [inhibitor, partial curve, poor fit]
15 | CC1(COc2cccnc2)COc2ccc(C(=O)N3CCN(c4ccccn4)CC3)cc2N1 (stereo unspecified) | inconclusive: 56.2 µM [inhibitor, full curve, poor fit]
16 | COc1cccc(OC)c1C(=O)OCc1ccccc1C#N | inactive
17 | Cc1cc(C)[nH]n1 | inactive
18 | CNc1nc(-c2cc(C)n(NC(=O)c3n[nH]c(=O)c4ccccc34)c2C)cs1 | inconclusive: 6.31 µM [inhibitor, full curve, poor fit]
19 | c1ccc(C2NCCn3cccc32)cc1 (stereo unspecified) | inconclusive: 79.4 µM [inhibitor, single point]
20 | CC(OC(=O)C1CCN(c2ccc(C(F)(F)F)cn2)CC1)C(=O)NC1CCCCC1C (stereo unspecified) | inactive
21 | COc1ccc(CN2CCCC3(C2)C(=NC2CCCCC2)NC(=O)N3c2cccc(OC)c2)cc1 (stereo unspecified) | inconclusive: 89.1 µM [inhibitor, single point]
22 | Oc1ccccc1O | inconclusive: 7.94 µM [inhibitor, full curve, poor fit]
23 | O=C(Nc1cccc(C(=O)O)c1)Nc1ccccc1Cl | inactive
24 | Cc1ccccc1/C=N/NC(=O)c1cccs1 | inactive

Row | SMILES | Potency
25 | Cc1ccc(-c2nc3ccccc3c(C(=O)O)c2C)s1 | inconclusive: 44.7 µM [inhibitor, partial curve, poor fit]
26 | CCCC(NC(=O)C1CCC1)C12CC3CC(CC(C3)C1)C2 (stereo unspecified) | inconclusive: 5.01 µM [inhibitor, full curve, poor fit]
27 | O=C(CN1CCC2(CC1)OCCO2)Nc1ccc(F)cc1 | inconclusive: 126 µM [inhibitor, single point]
28 | CC(C)c1ccc(C(=O)O)s1 | inactive
29 | COc1ccc([C@H]2CC(=O)C=C(c3ccc4cc[nH]c4c3)C2)cc1 | inactive
30 | Cc1ccc(-c2nn(-c3ccccc3)cc2C(N)=O)o1 | inconclusive: 35.5 µM [inhibitor, partial curve, poor fit]
31 | O=C1CCCN1CN1CCCCC1 | inconclusive: 50.1 µM [inhibitor, partial curve, poor fit]
32 | CCC(CO)[n+]1c(C)cc(/C=C2\Sc3ccccc3N2Cc2ccccc2)cc1C (stereo unspecified) | active: 50.1 µM
33 | CC(=O)C1=C(O)C(=O)N(c2ccccn2)C1c1cccc(F)c1 (stereo unspecified) | inconclusive: 6.31 µM [inhibitor, full curve, poor fit]
34 | CN(c1ccccc1)S(=O)(=O)c1ccc(NC(=S)NC(=O)c2ccccc2)cc1 | active: 14.1 µM
35 | CC(C)[C@H](NC(=O)N1c2ccccc2NC(=O)[C@@H]1C(C)C)C(=O)N[C@@H](Cc1ccccc1)C(=O)O | inconclusive: 12.6 µM [inhibitor, full curve, poor fit]
36 | O=C(Cc1ccc2ccccc2c1)Nc1cccc2cccnc12 | inactive
37 | C/C(=N/NC(=O)C(C)n1nc(C)c([N+](=O)[O-])c1C)c1ccc(OCC(N)=O)cc1 (stereo unspecified) | inconclusive: 100 µM [inhibitor, single point]
38 | CN(Cc1ccccc1)C(=O)c1csc([C@@H]2C[C@H](O)[C@@H](CO)O2)n1 | inactive
39 | COc1ccccc1C(=O)NC(=O)Nc1cccc(Cl)c1 | inconclusive: 50.1 µM [inhibitor, partial curve, poor fit]
40 | CN(CCC#N)C(=O)COC(=O)c1cc(Cl)cc(Cl)c1N | inconclusive: 79.4 µM [inhibitor, single point]
41 | CC1=C[C@@H](CNC(=O)NCc2ccccc2)[C@H](C(C)C)C[C@H]1CC(=O)NCc1cccnc1 | inactive
42 | CCNC(=O)NC(=O)CN1CCCCCCC1 | inactive
43 | O=C(O)CCCC(=O)N1Cc2ccccc2CC2(CCCN(Cc3ccccn3)C2)C1 (stereo unspecified) | inconclusive: 3.55 µM [inhibitor, full curve, poor fit]
44 | Cc1ccc(S(=O)(=O)NCC(c2ccc(N(C)C)cc2)N2CCCC2)cc1 (stereo unspecified) | inconclusive: 44.7 µM [inhibitor, partial curve, poor fit]
45 | COc1ccc(NC(=O)CN(C)S(=O)(=O)c2ccc(Cl)cc2)cn1 | inconclusive: 2.51 µM [inhibitor, full curve, poor fit]
46 | O=c1[nH]c(SCCOc2cccc3ccccc23)nc2ccccc12 | inactive
47 | COc1ccc(Cc2nnc(NC(=O)CS(=O)(=O)c3ccc(C)cc3)s2)cc1OC | inconclusive: 56.2 µM [inhibitor, partial curve, poor fit]
48 | Oc1ccc(Cl)cc1C=NCc1ccccc1Cl | inconclusive: 39.8 µM [inhibitor, partial curve, poor fit]

Of the compounds above, these have two or more sulfur atoms.
Row | SMILES | Potency
10 | Cc1ccc(-c2csc(=S)n2CC(=O)O)cc1 | inconclusive: 44.7 µM [inhibitor, partial curve, poor fit]
34 | CN(c1ccccc1)S(=O)(=O)c1ccc(NC(=S)NC(=O)c2ccccc2)cc1 | active: 14.1 µM
47 | COc1ccc(Cc2nnc(NC(=O)CS(=O)(=O)c3ccc(C)cc3)s2)cc1OC | inconclusive: 56.2 µM [inhibitor, partial curve, poor fit]

Additional compounds

Row | SMILES | Potency
49 | Cc1sc(NC(=O)C2=COCCO2)c(C#N)c1C | inconclusive: 44.7 µM [inhibitor, partial curve, poor fit]
50 | COCCn1c(SCc2nnc(C)o2)nc2sc(C)c(C)c2c1=O | inactive
51 | Cc1sc2ncnc(N(C)Cc3cccs3)c2c1C | inconclusive: 100 µM [inhibitor, single point]
52 | CN(C)Cc1nnc(C2CC(NC(=O)C3(C#N)CCOCC3)C2)n1C (stereo unspecified) | inconclusive: 7.94 µM [inhibitor, full curve]
53 | CCCCCCn1c(SCC)nc2c1c(=O)[nH]c(=O)n2C | inactive
54 | CCc1ccc(CN2CCCC3(Cc4ccccc4CNC3=O)C2)s1 (stereo unspecified) | inconclusive: 39.8 µM [inhibitor, partial curve]
55 | Cc1ccc(Cn2cc(-c3ccncc3)cc2C(=O)O)cc1 | inconclusive: 25.1 µM [inhibitor, single point]
56 | Nc1nccnc1C(=O)Nc1cccc(NC(=O)c2cccnc2)c1 | inactive
57 | CCc1c(C)c2ccc3c(c2oc1=O)CN(Cc1ccccc1)CO3 | inactive
58 | COc1ccc2c(c1)OC[C@H]1[C@H]2N2C(=O)CN(Cc3ccc(Cl)cc3)C(=O)[C@@]2(C)[C@H]1c1ccccc1 | inconclusive: 56.2 µM [inhibitor, partial curve, poor fit]
59 | Cc1ccccc1COC(=O)CSc1cnc2ccccc2n1 | inactive
60 | CCC1Nc2ncnc(N3CCN(c4ccccn4)CC3)c2N(Cc2ccc(Br)cc2)C1=O (stereo unspecified) | inconclusive: 14.1 µM [inhibitor, partial curve]
61 | Cc1cc(=O)cc(C)n1C | inactive
62 | [2H]c1c([2H])c([2H])c(C(=O)c2sc(N3CCCCCC3)nc2-c2ccccc2)c([2H])c1[2H] | inactive
63 | O=C(/C=C/c1cc(O)ccc1Br)c1ccc(Cl)cc1Cl | inconclusive: 35.5 µM [inhibitor, partial curve, poor fit]
64 | Cc1ccc(-c2cn(S(=O)(=O)c3cccc4nsnc34)nc2N)cc1 | inconclusive: 44.7 µM [inhibitor, partial curve, poor fit]
65 | CC(=O)N1CCC(N2CC[C@H](CO)[C@H](NC(=O)C3CC3)C2)CC1 | inactive
66 | Cc1ccc(S(=O)(=O)/N=C2/NC(=O)/C(=C\c3ccccc3)S2)cc1 | active: 39.8 µM
67 | CC(=O)N(CCN(C)C)c1nc2cc3c(cc2s1)OCCO3 | inconclusive: 100 µM [inhibitor, single point]
68 | O=C(COC(=O)c1ccc([N+](=O)[O-])o1)Nc1ncc(Cl)cc1Cl | inconclusive: 56.2 µM [inhibitor, partial curve, poor fit]
69 | CCCCn1c(C23CC4CC(CC(C4)C2)C3)n[nH]c1=S | inconclusive: 79.4 µM [inhibitor, single point]
70 | Cc1ccccc1NC(=O)Cc1nc(COC(=O)c2cccc(O)c2)cs1 | inconclusive: 141 µM [inhibitor, single point]
71 | CN(C)CCN(Cc1ccco1)S(=O)(=O)c1cc2c(cc1Cl)NC(=O)CO2 | inconclusive: 100 µM [inhibitor, partial curve, poor fit]
